According to article PMC4388180:
Results are given in words; binding and its absence hold for the method and conditions named. Some results given as binding are weak or reduced against the parent protein; the word gives no strength.

Amino acid sequences for entries named in this document (tags omitted).
UniProt P50748: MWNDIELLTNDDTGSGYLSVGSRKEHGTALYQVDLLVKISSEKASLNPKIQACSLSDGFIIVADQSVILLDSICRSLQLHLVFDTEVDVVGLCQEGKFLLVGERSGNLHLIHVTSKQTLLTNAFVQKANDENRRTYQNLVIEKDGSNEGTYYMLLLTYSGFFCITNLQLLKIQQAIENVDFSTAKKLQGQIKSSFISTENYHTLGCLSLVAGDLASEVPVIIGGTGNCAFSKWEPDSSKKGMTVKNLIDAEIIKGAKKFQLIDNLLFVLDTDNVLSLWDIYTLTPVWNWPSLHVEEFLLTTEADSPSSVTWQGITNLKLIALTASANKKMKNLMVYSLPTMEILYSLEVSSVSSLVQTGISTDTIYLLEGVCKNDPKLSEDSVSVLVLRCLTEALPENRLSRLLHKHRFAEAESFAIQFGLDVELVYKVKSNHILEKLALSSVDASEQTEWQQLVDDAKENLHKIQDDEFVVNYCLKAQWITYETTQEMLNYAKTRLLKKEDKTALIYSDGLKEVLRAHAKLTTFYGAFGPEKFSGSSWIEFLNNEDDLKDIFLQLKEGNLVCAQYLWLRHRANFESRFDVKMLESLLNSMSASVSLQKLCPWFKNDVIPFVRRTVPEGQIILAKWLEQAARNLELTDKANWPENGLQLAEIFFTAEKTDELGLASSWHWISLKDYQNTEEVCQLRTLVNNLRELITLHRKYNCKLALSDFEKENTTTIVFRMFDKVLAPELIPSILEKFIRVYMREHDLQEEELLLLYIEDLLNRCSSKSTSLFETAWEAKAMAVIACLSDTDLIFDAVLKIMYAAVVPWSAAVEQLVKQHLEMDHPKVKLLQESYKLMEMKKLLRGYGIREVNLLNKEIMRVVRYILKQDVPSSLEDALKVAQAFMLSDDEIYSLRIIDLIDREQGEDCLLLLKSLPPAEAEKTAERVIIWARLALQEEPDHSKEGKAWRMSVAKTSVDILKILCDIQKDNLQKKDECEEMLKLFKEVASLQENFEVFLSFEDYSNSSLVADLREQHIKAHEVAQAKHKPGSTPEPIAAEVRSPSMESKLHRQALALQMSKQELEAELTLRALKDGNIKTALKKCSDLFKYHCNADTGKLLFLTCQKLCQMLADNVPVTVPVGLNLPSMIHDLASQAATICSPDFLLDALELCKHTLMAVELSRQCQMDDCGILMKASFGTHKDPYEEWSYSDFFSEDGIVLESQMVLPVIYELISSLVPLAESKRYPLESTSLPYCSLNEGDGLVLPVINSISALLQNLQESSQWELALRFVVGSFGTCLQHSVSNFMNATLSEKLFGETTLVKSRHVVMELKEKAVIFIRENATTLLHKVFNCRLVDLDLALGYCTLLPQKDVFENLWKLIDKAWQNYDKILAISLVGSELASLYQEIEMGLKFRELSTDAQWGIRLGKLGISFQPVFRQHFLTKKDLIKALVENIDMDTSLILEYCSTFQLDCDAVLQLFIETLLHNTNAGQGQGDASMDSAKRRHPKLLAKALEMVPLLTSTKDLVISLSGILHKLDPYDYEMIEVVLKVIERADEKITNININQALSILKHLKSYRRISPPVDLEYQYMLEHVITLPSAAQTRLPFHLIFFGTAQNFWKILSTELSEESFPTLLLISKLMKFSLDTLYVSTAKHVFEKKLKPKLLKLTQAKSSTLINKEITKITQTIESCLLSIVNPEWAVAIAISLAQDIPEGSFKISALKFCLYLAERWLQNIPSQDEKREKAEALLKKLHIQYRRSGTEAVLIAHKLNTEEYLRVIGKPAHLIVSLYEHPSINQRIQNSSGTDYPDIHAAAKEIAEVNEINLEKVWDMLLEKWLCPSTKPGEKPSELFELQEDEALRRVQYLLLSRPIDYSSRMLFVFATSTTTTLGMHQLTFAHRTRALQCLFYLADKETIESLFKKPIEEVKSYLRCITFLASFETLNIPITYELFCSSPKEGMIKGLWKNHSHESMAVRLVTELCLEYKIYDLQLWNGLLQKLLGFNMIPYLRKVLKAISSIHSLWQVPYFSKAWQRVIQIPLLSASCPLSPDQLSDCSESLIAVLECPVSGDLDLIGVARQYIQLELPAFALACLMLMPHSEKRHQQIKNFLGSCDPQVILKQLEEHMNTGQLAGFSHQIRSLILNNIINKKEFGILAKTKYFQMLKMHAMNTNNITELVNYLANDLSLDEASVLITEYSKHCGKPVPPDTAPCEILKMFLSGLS
UniProt Q9H900: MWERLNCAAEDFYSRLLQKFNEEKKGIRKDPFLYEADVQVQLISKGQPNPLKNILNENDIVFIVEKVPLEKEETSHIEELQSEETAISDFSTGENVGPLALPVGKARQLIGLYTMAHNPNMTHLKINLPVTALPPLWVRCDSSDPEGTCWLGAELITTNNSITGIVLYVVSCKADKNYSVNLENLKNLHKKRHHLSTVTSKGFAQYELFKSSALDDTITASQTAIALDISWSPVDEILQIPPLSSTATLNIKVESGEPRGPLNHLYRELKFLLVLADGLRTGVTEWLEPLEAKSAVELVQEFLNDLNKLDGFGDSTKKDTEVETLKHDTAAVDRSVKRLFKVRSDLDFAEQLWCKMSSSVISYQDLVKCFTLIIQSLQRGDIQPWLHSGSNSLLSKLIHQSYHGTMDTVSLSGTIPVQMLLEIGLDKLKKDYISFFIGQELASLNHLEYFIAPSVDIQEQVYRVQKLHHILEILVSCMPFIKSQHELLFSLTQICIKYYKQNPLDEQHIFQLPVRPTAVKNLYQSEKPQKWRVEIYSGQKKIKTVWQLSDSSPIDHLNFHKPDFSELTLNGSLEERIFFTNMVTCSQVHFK

Key:
Rod (human) [1] = biological target: Rod (human) (UniProt P50748); assay: SDS-PAGE of washed, dissolved crystals; crystals of the purified co-expressed complex grown against 380 mM ammonium sulfate, 0.1 M MES pH 6.3, washed extensively and analysed by SDS-PAGE
Rod (human) [2] = biological target: Rod (human) (UniProt P50748); assay: co-purification (Ni-NTA affinity, then SEC); three subunits co-expressed in Tnao38 cells; cleared lysate on Ni-NTA (50 mM HEPES pH 8.5, 200 mM NaCl, 5% glycerol, 20 mM imidazole), held by His6-Rod; then Superose 6 10/300 in 25 mM HEPES pH 8.5, 250 mM NaCl, 4 mM TCEP; SDS-PAGE of fractions

binding (Rod (human) [1])	binding (Rod (human) [2])	Molecule
binds	binds	Zwilch (from UniProt Q9H900 1-591)
binds	binds	ZW10 (protein, UniProt O43264 1-779) MASFVTEVLAHSGRLEKEDLGTRISRLTRRVEEIKGEVCNMISKKYSEFLPSMQSAQGLITQVDKLSEDIDLLKSRIESEVRRDLHVSTGEFTDLKQQLERDSVVLSLLKQLQEFSTAIEEYNCALTEKKYVTGAQRLEEAQKCLKLLKSRKCFDLKILKSLSMELTIQKQNILYHLGEEWQKLIVWKFPPSKDTSSLESYLQTELHLYTEQSHKEEKTPMPPISSVLLAFSVLGELHSKLKSFGQMLLKYILRPLASCPSLHAVIESQPNIVIIRFESIMTNLEYPSPSEVFTKIRLVLEVLQKQLLDLPLDTDLENEKTSTVPLAEMLGDMIWEDLSECLIKNCLVYSIPTNSSKLQQYEEIIQSTEEFENALKEMRFLKGDTTDLLKYARNINSHFANKKCQDVIVAARNLMTSEIHNTVKIIPDSKINVPELPTPDEDNKLEVQKVSNTQYHEVMNLEPENTLDQHSFSLPTCRISESVKKLMELAYQTLLEATTSSDQCAVQLFYSVRNIFHLFHDVVPTYHKENLQKLPQLAAIHHNNCMYIAHHLLTLGHQFRLRLAPILCDGTATFVDLVPGFRRLGTECFLAQMRAQKGELLERLSSARNFSNMDDEENYSAASKAVRQVLHQLKRLGIVWQDVLPVNIYCKAMGTLLNTAISEVIGKITALEDISTEDGDRLYSLCKTVMDEGPQVFAPLSEESKNKKYQEEVPVYVPKWMPFKELMMMLQASLQEIGDRWADGKGPLAAAFSSSEVKALIRALFQNTERRAAALAKIK
